No constants are given. Whether binding was seen depends on the method and setting. Binding seen in cells or lysates may run through a third protein. Some entries that bind do so weakly or less than the wild type.

Binding data for one molecule are collected here from paper PMC8301221.

The test has as its target signal transducer and activator of transcription 2 (STAT2) (human (endogenous in HEK293T)), P52630. Put plainly: co-IP; HEK293T cells transfected with empty vector or Flag-UL23 plasmid for 46 h; RIPA lysates immunoprecipitated separately with anti-IRF9, anti-STAT1 and anti-STAT2 antibodies and protein A/G; immunoblot. Particulars: remark: other sources report otherwise.

B1: IFN regulatory factor 9 (IRF9), Q00978 1-393 (protein)
chain: MASGRARCTRKLRNWVVEQVESGQFPGVCWDDTAKTMFRIPWKHAGKQDFREDQDAAFFKAWAIFKGKYKEGDTGGPAVWKTRLRCALNKSSEFKEVPERGRMDVAEPYKVYQLLPPGIVSGQPGTQKVPSKRQHSSVSSERKEEEDAMQNCTLSPSVLQDSLNNEEEGASGGAVHSDIGSSSSSSSPEPQEVTDTTEAPFQGDQRSLEFLLPPEPDYSLLLTFIYNGRVVGEAQVQSLDCRLVAEPSGSESSMEQVLFPKPGPLEPTQRLLSQLERGILVASNPRGLFVQRLCPIPISWNAPQAPPGPGPHLLPSNECVELFRTAYFCRDLVRYFQGLGPPPKFQVTLNFWEESHGSSHTPQNLITVKMEQAFARYLLEQTPEQQAAILSLV
B1: the binding result is listed as “binds”.
